Laboratory results: PMC9186069

Target: full-length B. miyamotoi FbpA-R264A-K343A (Borrelia miyamotoi strain FR64b)
Test: far-Western, overlay or dot blot; B. burgdorferi B314 whole-cell lysates (2.5 x10^7 cell equivalents) resolved by SDS-PAGE, on PVDF; probed with 20 μg zymogen or active C1r for 1 hour; detected with goat anti-human C1r; only the binder purified

B1: C1r zymogen (enzyme, UniProt P00736 18-705)
chain: SIPIPQKLFGEVTSPLFPKPYPNNFETTTVITVPTGYRVKLVFQQFDLEPSEGCFYDYVKISADKKSLGRFCGQLGSPLGNPPGKKEFMSQGNKMLLTFHTDFSNEENGTIMFYKGFLAYYQAVDLDECASRSKSGEEDPQPQCQHLCHNYVGGYFCSCRPGYELQEDTHSCQAECSSELYTEASGYISSLEYPRSYPPDLRCNYSIRVERGLTLHLKFLEPFDIDDHQQVHCPYDQLQIYANGKNIGEFCGKQRPPDLDTSSNAVDLLFFTDESGDSRGWKLRYTTEIIKCPQPKTLDEFTIIQNLQPQYQFRDYFIATCKQGYQLIEGNQVLHSFTAVCQDDGTWHRAMPRCKIKDCGQPRNLPNGDFRYTTTMGVNTYKARIQYYCHEPYYKMQTRAGSRESEQGVYTCTAQGIWKNEQKGEKIPRCLPVCGKPVNPVEQRQRIIGGQKAKMGNFPWQVFTNIHGRGGGALLGDRWILTAAHTLYPKEHEAQSNASLDVFLGHTNVEELMKLGNHPIRRVSVHPDYRQDESYNFEGDIALLELENSVTLGPNLLPICLPDNDTFYDLGLMGYVSGFGVMEEKIAHDLRFVRLPVANPQACENWLRGKNRMDVFSQNMFCAGHPSLKQDACQGDSGGVFAVRDPNTDRWVATGIVSWGIGCSRGYGFYTKVLNYVDWIKKEMEEED
Q: B1 was tested. Which binding did it give?
A: no binding

Results are given in words; binding and its absence hold for the method and conditions named.
